These are yes or no findings as the source states them, for the method shown. In cells and extracts the contact can be indirect. Some binding calls cover weakened binding; strength is not graded here.
Legend:
[1] = molecular target: Thrombospondin 1 (THBS1) (human (endogenous in BEAS-2B)) (UniProt P07996); experiment: proximity ligation; Duolink PLA in fixed BEAS-2B cells with anti-THBS1 and anti-BECN1 antibodies
[2] = molecular target: Thrombospondin 1 (THBS1) (human (endogenous in BEAS-2B)) (UniProt P07996); experiment: co-IP; BEAS-2B lysates in IP buffer, protein A/G agarose beads and anti-tag antibody overnight at 4 °C, washed with NaCl buffer, Western blot; cells under control, LPS + CIH, LPS + CIH + Ang-(1-7) or ad-THBS1 conditions; which protein was precipitated is not told
[3] = molecular target: THBS1 overexpressed from adenovirus (ad-THBS1) (mouse) (UniProt P35441); experiment: as above

Amino acid sequences for entries named in this document (tags omitted). Residues count along the entry.
UniProt P07996, residues 19-1170: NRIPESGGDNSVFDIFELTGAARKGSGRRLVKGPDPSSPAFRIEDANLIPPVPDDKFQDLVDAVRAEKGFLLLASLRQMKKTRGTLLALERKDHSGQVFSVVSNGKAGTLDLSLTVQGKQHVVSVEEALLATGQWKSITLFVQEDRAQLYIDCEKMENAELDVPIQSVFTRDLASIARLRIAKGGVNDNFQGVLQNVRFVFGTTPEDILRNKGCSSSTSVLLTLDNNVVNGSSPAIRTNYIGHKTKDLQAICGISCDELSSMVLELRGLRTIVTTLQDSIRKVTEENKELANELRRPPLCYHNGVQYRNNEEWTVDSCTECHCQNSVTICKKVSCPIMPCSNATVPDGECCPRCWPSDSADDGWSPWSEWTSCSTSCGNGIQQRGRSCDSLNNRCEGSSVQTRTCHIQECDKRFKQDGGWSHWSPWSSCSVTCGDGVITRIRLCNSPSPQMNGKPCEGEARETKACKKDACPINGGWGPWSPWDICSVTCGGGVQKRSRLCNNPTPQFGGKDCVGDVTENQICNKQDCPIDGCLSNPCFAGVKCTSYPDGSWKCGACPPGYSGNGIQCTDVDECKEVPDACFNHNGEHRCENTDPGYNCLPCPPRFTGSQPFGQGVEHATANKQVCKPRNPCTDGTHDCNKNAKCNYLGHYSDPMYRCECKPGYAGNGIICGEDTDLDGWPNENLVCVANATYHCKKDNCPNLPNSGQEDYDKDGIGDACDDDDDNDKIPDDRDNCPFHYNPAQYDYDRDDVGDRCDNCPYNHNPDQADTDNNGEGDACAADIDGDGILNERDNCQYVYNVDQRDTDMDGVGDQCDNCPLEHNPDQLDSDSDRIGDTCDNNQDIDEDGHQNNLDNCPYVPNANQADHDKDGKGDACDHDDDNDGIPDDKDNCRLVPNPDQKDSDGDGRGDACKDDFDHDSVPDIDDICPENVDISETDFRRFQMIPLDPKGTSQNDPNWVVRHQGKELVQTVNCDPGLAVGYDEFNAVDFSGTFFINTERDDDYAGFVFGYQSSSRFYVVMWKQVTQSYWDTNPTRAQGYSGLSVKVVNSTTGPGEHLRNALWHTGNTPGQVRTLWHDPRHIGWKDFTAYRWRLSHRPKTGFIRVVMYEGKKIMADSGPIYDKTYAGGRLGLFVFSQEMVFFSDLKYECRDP
UniProt P35441, residues 19-1170: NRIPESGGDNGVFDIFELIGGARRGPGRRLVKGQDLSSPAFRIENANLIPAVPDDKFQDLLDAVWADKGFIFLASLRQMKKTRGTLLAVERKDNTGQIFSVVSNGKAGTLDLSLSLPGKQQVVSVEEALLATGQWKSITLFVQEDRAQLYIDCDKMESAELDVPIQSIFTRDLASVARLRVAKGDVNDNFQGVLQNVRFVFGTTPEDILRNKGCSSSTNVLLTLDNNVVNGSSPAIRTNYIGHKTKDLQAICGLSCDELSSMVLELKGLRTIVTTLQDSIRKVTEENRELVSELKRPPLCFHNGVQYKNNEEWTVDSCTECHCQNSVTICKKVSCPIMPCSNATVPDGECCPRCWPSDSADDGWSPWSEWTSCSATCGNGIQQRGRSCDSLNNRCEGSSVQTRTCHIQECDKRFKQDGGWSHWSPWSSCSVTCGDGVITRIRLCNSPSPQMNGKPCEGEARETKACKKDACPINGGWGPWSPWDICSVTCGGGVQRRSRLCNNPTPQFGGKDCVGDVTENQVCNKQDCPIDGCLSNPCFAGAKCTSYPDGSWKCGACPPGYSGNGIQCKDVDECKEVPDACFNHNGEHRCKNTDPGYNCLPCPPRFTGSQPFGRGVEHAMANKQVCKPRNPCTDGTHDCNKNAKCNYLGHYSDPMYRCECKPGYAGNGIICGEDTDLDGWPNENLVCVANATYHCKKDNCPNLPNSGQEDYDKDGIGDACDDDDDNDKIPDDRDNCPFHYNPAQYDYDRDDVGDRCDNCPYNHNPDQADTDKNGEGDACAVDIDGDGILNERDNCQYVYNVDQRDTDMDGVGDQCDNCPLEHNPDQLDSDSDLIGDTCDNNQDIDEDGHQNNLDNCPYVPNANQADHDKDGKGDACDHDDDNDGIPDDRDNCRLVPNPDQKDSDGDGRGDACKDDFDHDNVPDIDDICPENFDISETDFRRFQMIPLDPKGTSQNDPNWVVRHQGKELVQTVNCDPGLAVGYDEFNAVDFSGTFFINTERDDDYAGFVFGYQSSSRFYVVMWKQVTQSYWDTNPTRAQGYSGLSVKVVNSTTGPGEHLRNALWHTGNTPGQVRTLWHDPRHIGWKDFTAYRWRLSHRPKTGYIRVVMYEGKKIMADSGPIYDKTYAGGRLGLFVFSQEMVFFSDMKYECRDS
UniProt Q14457: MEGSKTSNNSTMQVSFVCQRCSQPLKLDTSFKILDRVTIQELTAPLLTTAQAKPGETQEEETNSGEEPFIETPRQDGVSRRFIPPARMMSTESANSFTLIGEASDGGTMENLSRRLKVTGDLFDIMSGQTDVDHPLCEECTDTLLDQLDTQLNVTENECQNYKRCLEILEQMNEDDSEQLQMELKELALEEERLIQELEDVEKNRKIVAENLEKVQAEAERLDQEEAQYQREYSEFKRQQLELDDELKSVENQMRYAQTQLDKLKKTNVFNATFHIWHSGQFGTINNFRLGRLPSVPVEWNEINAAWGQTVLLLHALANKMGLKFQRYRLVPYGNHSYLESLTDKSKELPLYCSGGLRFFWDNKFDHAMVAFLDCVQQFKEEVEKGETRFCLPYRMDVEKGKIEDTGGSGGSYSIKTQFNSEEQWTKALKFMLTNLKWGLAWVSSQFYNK

binding [1]: binds | binding [2]: binds | binding [3]: binds
Substance: Beclin 1 (BECN1) (from UniProt Q14457 1-450)

From article PMC10545676
